Results on three molecules are retold here after US20260167714A1.

Assay [1] deals with recombinant human ILT4 (LILRB2) (human). Put plainly: SPR, Biacore 8K cross-reactivity study. On the technique in general: Surface plasmon resonance follows binding to a sensor surface in real time, without labels.
For assay [2] the target is unchanged. Put plainly: SPR.

These are yes or no findings as the source states them, for the method shown. Binding calls can cover weak binding; strength is not graded here.

B1: Hz77-LALA (antibody, human IgG1, kappa, L234A L235A, V domains shown)
VH: QVQLVQSGAEVKKPGSSVKVSCKASGYSFTGYSVNWVRQAPGQGLEWIGRINPYNGDIFNNQKFKGRATITVDKSTSTAYMELSSLRSEDTAVYYCARGTTVGGAWFAYWGQGTLVTVSS
VL: DIVMTQSPDSLAVSLGERATINCRASESVDSYGYSFLHWYQQKPGQPPKLLIYLASNLESGIPDRFSGSGSGTDFTLTISSLQAEDVAVYYCQQSNEDLMYTFGGGTKVEIKR
Take B1: the binding entry in assay [1] is given as “binds”.

B2: Hz45.01-LALA (antibody, human IgG1, kappa, L234A L235A, V domains shown)
VH: QVQLVQSGAEVKKPGASVKVSCKASGYTFTDYYMNWVRQAPGQRLEWIGDINPNNGGTSYNQKFKGRATITVDTSASTAYMELSSLRSEDTAVYYCARGGAELTGTYWYFDVWGQGTTVTVSS
VL: DIQMTQSPSSLSASVGDRVTITCRASENIYSNLAWYQQKPGKAPKVLVYGATNLADGVPSRFSGSGSGTEYTLTISSLQPEDFATYYCQHFWDSPFTFGGGTKVEIKR
As to B2, the binding entry in assay [2] and in assay [1] was “binds” throughout.

B3: Hz156.03-LALA (antibody, human IgG1, kappa, L234A L235A, V domains shown)
VH: QVQLVQSGAEVKKPGSSVKVSCKASGYTFTDYYMNWVRQAPGQGLEWIARIYPGVYRTHYNEKFKDRVTLTADKSTSTAYMELSSLRSEDTAVYYCARSGYYGGTYEEDAMDYWGQGTTVTVSS
VL: DIQMTQSPSSLSASVGDRVTITCRASENIYSNLAWYQQKPGKAPKLLVYAATSLADGVPSRFSGSGSGTDYTLTISSLQPEDFATYYCQNFWDTPYTFGQGTKVEIKR
For B3, the binding entry in assay [2] and in assay [1] was “binds” in each case.
